Results from one PubChem assay

Data taken from PubChem BioAssay AID504749, deposited by NCATS (2011).

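A panel of P. falciparum strains inside erythrocytes is exposed to compounds for three days, then a DNA-binding dye reports the amount of parasite DNA.
Each compound was titrated across a series from about 0.000037 to 29 µM.
The number is the fitted AC50, the concentration giving a half-maximal change in signal; a lower value means higher potency, whether the curve shows a decrease or an increase.
Calls follow the curve class and fit quality: every row here is inconclusive, covering signal-raising curves and weak, poorly fitted, partial or highest-dose-only inhibition curves.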

Values are in nM.
Every entry below has the call inconclusive.
These entries are mostly ones the record files as inconclusive; other results of the assay are not listed here.
Potencies fitted to partial, single-point or poorly fitting curves are rough.
Some entries filed as inconclusive have a full curve.

{"structure": "CCN1CCC[C@@H](OC(=O)C(c2ccccc2)c2ccccc2)C1", "condition": "CP203", "fitted potency (nM)": "7208", "curve as filed": "inhibitor, single point"}
{"structure": "CCN1CCC[C@@H](OC(=O)C(c2ccccc2)c2ccccc2)C1", "condition": "CP291", "fitted potency (nM)": "6424", "curve as filed": "inhibitor, single point"}
{"structure": "CCN1CCC[C@@H](OC(=O)C(c2ccccc2)c2ccccc2)C1", "condition": "7G8", "fitted potency (nM)": "1412", "curve as filed": "inhibitor, partial curve"}
{"structure": "CCN1CCC[C@@H](OC(=O)C(c2ccccc2)c2ccccc2)C1", "condition": "TAB165", "fitted potency (nM)": "3162", "curve as filed": "inhibitor, partial curve"}
{"structure": "CCN1CCC[C@@H](OC(=O)C(c2ccccc2)c2ccccc2)C1", "condition": "PC49", "fitted potency (nM)": "2818", "curve as filed": "inhibitor, partial curve"}
{"structure": "CCCCCCCCCCCCCCCC[N+](C)(C)CCN(Cc1ccc(OC)cc1)c1ncccn1", "condition": "7G8", "fitted potency (nM)": "10000", "curve as filed": "inhibitor, single point"}
{"structure": "CCCCCCCCCCCCCCCC[N+](C)(C)CCN(Cc1ccc(OC)cc1)c1ncccn1", "condition": "3D7", "fitted potency (nM)": "7080", "curve as filed": "inhibitor, single point"}
{"structure": "CCCCCCCCCCCCCCCC[N+](C)(C)CCN(Cc1ccc(OC)cc1)c1ncccn1", "condition": "P93_24", "fitted potency (nM)": "1585", "curve as filed": "inhibitor, single point"}
{"structure": "CCCCCCCCCCCCCCCC[N+](C)(C)CCN(Cc1ccc(OC)cc1)c1ncccn1", "condition": "CP238", "fitted potency (nM)": "2239", "curve as filed": "inhibitor, single point"}
{"structure": "CCCCCCCCCCCCCCCC[N+](C)(C)CCN(Cc1ccc(OC)cc1)c1ncccn1", "condition": "DIV17", "fitted potency (nM)": "5103", "curve as filed": "inhibitor, single point"}
{"structure": "CCCCCCCCCCCCCCCC[N+](C)(C)CCN(Cc1ccc(OC)cc1)c1ncccn1", "condition": "TAB113", "fitted potency (nM)": "7080", "curve as filed": "inhibitor, single point"}
{"structure": "CCCCCCCCCCCCCCCC[N+](C)(C)CCN(Cc1ccc(OC)cc1)c1ncccn1", "condition": "CP217", "fitted potency (nM)": "5623", "curve as filed": "inhibitor, single point"}
{"structure": "CCCCCCCCCCCCCCCC[N+](C)(C)CCN(Cc1ccc(OC)cc1)c1ncccn1", "condition": "SC27B", "fitted potency (nM)": "1585", "curve as filed": "inhibitor, single point"}
{"structure": "CCCCCCCCCCCCCCCC[N+](C)(C)CCN(Cc1ccc(OC)cc1)c1ncccn1", "condition": "CP247", "fitted potency (nM)": "6310", "curve as filed": "inhibitor, single point"}
{"structure": "CCCCCCCCCCCCCCCC[N+](C)(C)CCN(Cc1ccc(OC)cc1)c1ncccn1", "condition": "C2A", "fitted potency (nM)": "3548", "curve as filed": "inhibitor, single point"}
{"structure": "CCCCCCCCCCCCCCCC[N+](C)(C)CCN(Cc1ccc(OC)cc1)c1ncccn1", "condition": "ATS95", "fitted potency (nM)": "1000", "curve as filed": "inhibitor, single point"}
{"structure": "CCCCCCCCCCCCCCCC[N+](C)(C)CCN(Cc1ccc(OC)cc1)c1ncccn1", "condition": "CP262", "fitted potency (nM)": "8087", "curve as filed": "inhibitor, single point"}
{"structure": "CCCCCCCCCCCCCCCC[N+](C)(C)CCN(Cc1ccc(OC)cc1)c1ncccn1", "condition": "PC15", "fitted potency (nM)": "3981", "curve as filed": "inhibitor, single point"}
{"structure": "CCCCCCCCCCCCCCCC[N+](C)(C)CCN(Cc1ccc(OC)cc1)c1ncccn1", "condition": "CP250", "fitted potency (nM)": "1000", "curve as filed": "inhibitor, full curve"}
{"structure": "CCCCCCCCCCCCCCCC[N+](C)(C)CCN(Cc1ccc(OC)cc1)c1ncccn1", "condition": "DFO2036", "fitted potency (nM)": "5623", "curve as filed": "inhibitor, single point"}
{"structure": "CCCCCCCCCCCCCCCC[N+](C)(C)CCN(Cc1ccc(OC)cc1)c1ncccn1", "condition": "CP286", "fitted potency (nM)": "10000", "curve as filed": "inhibitor, single point"}
{"structure": "CCCCCCCCCCCCCCCC[N+](C)(C)CCN(Cc1ccc(OC)cc1)c1ncccn1", "condition": "CP335", "fitted potency (nM)": "2031", "curve as filed": "inhibitor, single point"}
{"structure": "CCCCCCCCCCCCCCCC[N+](C)(C)CCN(Cc1ccc(OC)cc1)c1ncccn1", "condition": "TAB109", "fitted potency (nM)": "7080", "curve as filed": "inhibitor, single point"}
{"structure": "CCCCCCCCCCCCCCCC[N+](C)(C)CCN(Cc1ccc(OC)cc1)c1ncccn1", "condition": "W2", "fitted potency (nM)": "8087", "curve as filed": "inhibitor, single point"}

The last 2 entries again:

structure,condition,fitted potency (nM),curve as filed
CCCCCCCCCCCCCCCC[N+](C)(C)CCN(Cc1ccc(OC)cc1)c1ncccn1,TAB109,7080,"inhibitor, single point"
CCCCCCCCCCCCCCCC[N+](C)(C)CCN(Cc1ccc(OC)cc1)c1ncccn1,W2,8087,"inhibitor, single point"